From paper PMC9532426, “Autophagy induction promoted by m6A reader YTHDF3 through translation upregulation of FOXO3 mRNA”

Sequences of proteins named here, by UniProt entry; tags and fusion partners are left off. Residues count along the entry.
UniProt P20029, residues 20-655: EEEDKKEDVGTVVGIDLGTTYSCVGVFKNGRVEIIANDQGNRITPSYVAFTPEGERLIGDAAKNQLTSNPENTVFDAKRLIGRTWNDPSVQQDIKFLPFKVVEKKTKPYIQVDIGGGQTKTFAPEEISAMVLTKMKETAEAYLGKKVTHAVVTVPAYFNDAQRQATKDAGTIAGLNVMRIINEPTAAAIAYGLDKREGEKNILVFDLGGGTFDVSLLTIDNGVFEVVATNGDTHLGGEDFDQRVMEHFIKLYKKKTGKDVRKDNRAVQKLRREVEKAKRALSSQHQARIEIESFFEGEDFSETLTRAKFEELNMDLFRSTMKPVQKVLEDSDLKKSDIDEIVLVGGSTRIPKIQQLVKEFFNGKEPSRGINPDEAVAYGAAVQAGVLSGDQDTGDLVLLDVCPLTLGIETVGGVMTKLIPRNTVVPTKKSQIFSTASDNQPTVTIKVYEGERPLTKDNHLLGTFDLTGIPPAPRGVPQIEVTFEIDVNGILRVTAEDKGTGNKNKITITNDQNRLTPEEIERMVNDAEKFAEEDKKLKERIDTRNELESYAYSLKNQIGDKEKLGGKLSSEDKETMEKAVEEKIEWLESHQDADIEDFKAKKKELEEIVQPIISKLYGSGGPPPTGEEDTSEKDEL

Experiments:
[1] = target: FLAG-tagged METTL3 (mouse) (UniProt Q8C3P7); assay: affinity purification with mass spectrometry; anti-FLAG immunoprecipitates from MEFs overexpressing FLAG-tagged METTL3, quantitative mass spectrometry; with or without nutrient starvation
[2] = target: T1, YTHDF3 (mouse (endogenous in MEFs)) (UniProt Q8BYK6); assay: affinity purification with mass spectrometry; anti-YTHDF3 antibody (sc-377119) crosslinked to Protein A/G Plus Agarose, MEF lysates under normal and nutrient-free conditions, overnight at 4 °C, LC-MS/MS; mouse IgG as control
T1 sequence: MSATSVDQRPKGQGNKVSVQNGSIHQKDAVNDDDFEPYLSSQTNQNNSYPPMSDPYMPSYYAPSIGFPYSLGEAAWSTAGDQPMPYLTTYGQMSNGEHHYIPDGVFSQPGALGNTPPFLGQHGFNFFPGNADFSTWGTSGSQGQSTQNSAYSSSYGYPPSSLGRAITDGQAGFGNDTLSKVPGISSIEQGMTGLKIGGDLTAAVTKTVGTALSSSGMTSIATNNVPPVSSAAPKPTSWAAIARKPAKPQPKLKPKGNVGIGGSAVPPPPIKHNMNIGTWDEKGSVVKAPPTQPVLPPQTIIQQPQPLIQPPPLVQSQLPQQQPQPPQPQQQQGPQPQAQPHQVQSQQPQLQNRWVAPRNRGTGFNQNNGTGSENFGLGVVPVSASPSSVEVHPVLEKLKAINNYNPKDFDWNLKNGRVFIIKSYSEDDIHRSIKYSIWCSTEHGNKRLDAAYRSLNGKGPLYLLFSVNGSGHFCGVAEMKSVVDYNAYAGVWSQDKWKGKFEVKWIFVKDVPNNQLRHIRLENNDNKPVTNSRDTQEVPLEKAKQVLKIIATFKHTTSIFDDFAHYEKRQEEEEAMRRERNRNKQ

With HSPA5 (from UniProt P20029 20-655) the binding [1] was “binds”.

B1: FAM120A (protein, UniProt Q6A0A9 1-1112)
chain: MGVQGFQDYIEKHCPSAVVPVELQKLARGSLVGGGRQRPPQTPLRLLVDADNCLHRLYGGFYTDWVSGGQWNHMLGYLAALAKACFGGNIELFVFFNGALEKARLHEWVKRQGNERQTAQQIVSHVQNKGTPPPKVWFLPPVCMAHCIRLALIRFHVKVAQSIEDHHQEVIGFCRENGFHGLVAYDSDYALCNIPYYFSAHALKLSRNGKSLTTSQYLMHEVAKQLDLNPNRFPIFAALLGNHILPDEDLASFHWSLLGPEHPLASLKVRAHQLVLPPCDVVIKAVADYVRNIHDTSDLDAIAKDVFQHSQSRTDDKVIRFKRAVGYYSATSKPMPFHPPHYLARPNPFGMPGMVPPYVPPQMLNIPQTSLQAKPAVPQVPSPGGTPGQAPYPYSLSEPALTLDTSGKNLTEQNSYSNIPHEGKHTPLYERSSPINLAQSGSPNHVDSAYFPGSSTSSSSDNDEGGGGATNHISGNKIGWEKTGSHAEPLARGDPGDQVKVEGSSTASSGSQLAEGKGSHMGTVQPIPCLLSMPTRNHMDITTPPLPPVAPEVLRVAEHRHKKGLMYPYIFHILTKGEIKIAVSIEDEANKDLPPAALLYRPVRQYVYGVLFSLAESRKKTERLAFRKNRLPPEFSPLIIKEWAAYKGKSPQTPELVEALAFREWTCPNLKRLWLGKAVEDKNRRMRAFLACMRSDTPAMLNPANVPTHLMVLCCVLRYMVQWPGARILRRQELDAFLAQALSPKLYEPDQLQELKIDNLDPRGIQLSALFMSGVDMALFANDACGQPIPWEHCCPWMYFDGKLFQSKLLKASREKTPLIDLCDGQAEQAAKVEKMRQSILEGLSFSRQNHPLPFPPPPALPFYPASVYPRHFGPVPPSQGRGRGFAGVCGFGGHYGETVATGPYRAFRVTAASGHCGAFSGSDSSRTSKSQGGVQPIPSQGGKLEIAGTVVGHWAGSRRGRGGRGPFPLQVVSVGGPARGRPRGVISTPVIRTFGRGGRYYGRGYKSQGAIQGRPPYAASAEEVAKELKSKSGESKSSAVSLAENGVMAEEKPVPQLNGSTGDPRVPSHSESALNNDSKPCNTNPHLNALSTDSACRREAALEAAVLNKEE
With B1 the binding [2] was “binds”.

B2: RBM3 (protein, UniProt O89086 1-153)
chain: MSSEEGKLFVGGLNFNTDEQALEDHFSSFGPISEVVVVKDRETQRSRGFGFITFTNPEHASDAMRAMNGESLDGRQIRVDHAGKSARGSRGGAFGGRGRSYSRGGGDQGYGSGRYDSRPGGYGYGYGRSRDYSGSQGGYDRYSGGNYRDNYDN
In the case of B2, the binding [2] is reported as “binds”.

No constants are given. Whether binding was seen depends on the method and setting. Binding seen in cells or lysates may run through a third protein. Here binding means that the protein was enriched with, or labelled near, the bait; the list need not be complete.
